Source: PubChem BioAssay AID493014 (National Center for Advancing Translational Sciences (NCATS), 2011)
The list shows a part of the results. Shown are side measurements of this screen, not its main read-out; they come without a call. The list favours compounds with an active or inconclusive main result. Potencies come from curve fits of mixed quality, noted in brackets.

Test: qHTS Assay to Find Inhibitors of Chronic Active B-Cell Receptor Signaling
Settings: ABC-DLBCL IkBa-CBG/CBR reporter, luminescence ratio (green luciferase fused to IkBa over red control in TMD8 lymphoma cells), 4 h
Outline: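 TMD8 human ABC-DLBCL cells with doxycycline-inducible IκBα–green luciferase fusion and unfused red luciferase, in 0.5% FBS medium; compounds up to 46 uM, 4 h at 37C. Green/red luminescence ratio, filter-overlap corrected, fitted to concentration-response curves.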

[1] = measured here: CBR red luminescence, cell number
[2] = measured here: IkBa-CBG green luminescence

SMILES | AC50 [1] | AC50 [2]
COc1ccc2c(=O)c(C(=O)NCCc3ccccc3)c[nH]c2c1 | 12.6 µM [falling, partial curve] | –
O=C(CNCC1CCCO1)N1CCCc2ccccc21 (stereo not drawn) | 29.1 µM [rising, single point] | –
Cc1ccc(-n2nnc(-c3cnc4ccccc4c3)n2)cc1 | 10 µM [falling, partial curve] | –
Cc1nc2ccccn2c1C(=O)NNC(=S)Nc1ccccc1 | 10 µM [falling, partial curve, poor fit] | –
O=C(c1cccc(NS(=O)(=O)c2ccc(Br)cc2)c1)N1CCCCC1 | 1.3 µM [falling, full curve, poor fit] | –
CCOc1ccc(S(=O)(=O)NCCC(=O)NCCc2ccc(C(C)C)cc2)cc1 | 23.1 µM [falling, single point] | –
CCn1c(C)nc2c(C)[n+](CC(=O)c3ccc(Br)cc3)ccc21 | 0.631 µM [falling, full curve, poor fit] | –
COc1ccc(NC(=O)c2cccnc2)cc1 | 1.26 µM [rising, full curve, poor fit] | –
COc1ccc(NS(=O)(=O)c2ccc(OC)c(N(C)S(=O)(=O)c3ccc(Cl)cc3)c2)cc1 | 4.47 µM [rising, partial curve, poor fit] | –
c1ccc(CSc2ncnc3c2cnn3-c2ccccc2)cc1 | 0.0731 µM [rising, full curve, poor fit] | –
COc1ccc(C(=O)N/N=C/c2sc3ccccc3c2O)cc1 | 16.4 µM [falling, partial curve] | 6.51 µM [falling, single point]
S=C(N/N=C/c1ccc(Cl)c(Cl)c1)Nc1ccccc1Cl | 0.316 µM [falling, full curve] | –
CCOc1ccc(/C=C2\SC(=S)N(C(C(=O)O)c3ccccc3)C2=O)cc1OC (stereo not drawn) | 35.5 µM [falling, single point] | –
Cc1ccc2[nH]c3c(=S)nc[nH]c3c2c1 | 2.31 µM [rising, partial curve, poor fit] | –
O=C1CC(c2ccccc2)CC(O)=C1C=Nc1ccc(O)cc1 (stereo not drawn) | 15.8 µM [falling, partial curve, poor fit] | –
Cc1cccc(/C=C(\c2nc3ccccc3[nH]2)S(=O)(=O)c2ccccc2)c1 | 2.31 µM [falling, partial curve] | –
[O-][n+]1onc2c1CCc1c-2nn(-c2ccccc2Cl)[n+]1[O-] | 17.8 µM [falling, partial curve, poor fit] | –
Cc1cccc(C)c1NC(=O)CN(c1ccccn1)S(=O)(=O)c1ccc(F)cc1 | 35.5 µM [rising, single point] | –
Cc1cccc(C(=O)Nc2ccc3c(c2)C(=O)NC3=O)c1 | 35.5 µM [falling, single point] | –
Cc1cc(Br)ccc1OCc1nc(-c2cccnc2)no1 | 29.1 µM [rising, single point] | –

SMILES | AC50 [1] | AC50 [2]
CC(=O)Nc1ccc(S(=O)(=O)NCCNC(=O)c2ccccc2F)cc1 | 20.6 µM [rising, partial curve, poor fit] | –
CN(C)CCNC(=O)C(=O)C1C(=O)Nc2ccccc21 (stereo not drawn) | 14.1 µM [falling, single point] | –
CC(=O)c1cccc(NC(=O)CSc2nc(C3CC3)nc3ccccc23)c1 | 2.51 µM [falling, partial curve, poor fit] | –
CSc1ccc(C2NC(=O)c3c(sc4c3CCN(C)C4)N2)cc1 (stereo not drawn) | 0.731 µM [rising, full curve, poor fit] | –
Cc1cc(C(=O)NNC(=O)c2cccc(N(C)C)c2)c(C)o1 | 11.2 µM [falling, partial curve, poor fit] | –
O=C(Nc1cccn2ncnc12)c1ccccc1 | 10 µM [falling, partial curve, poor fit] | –
CN(C1=NC(=O)C(CC(=O)Nc2ccc(Br)cc2)S1)c1ccc(O)cc1 (stereo not drawn) | 29.1 µM [falling, single point] | –
Cc1nnc2sc(-c3ccc(NC(=O)CSc4ccc(Cl)cc4)cc3)nn12 | 1.46 µM [falling, partial curve, poor fit] | –
Cc1ccccc1OCc1nc2ccccc2c(=O)n1/N=C/c1cccc([N+](=O)[O-])c1 | 0.651 µM [falling, full curve, poor fit] | –
Cc1cccc(N2CCN(S(=O)(=O)c3ccc4c(c3)CCN4C(=O)CCC(=O)O)CC2C)c1 (stereo not drawn) | 29.1 µM [rising, single point] | –
CCCCNS(=O)(=O)c1ccc(NC(=O)c2cccs2)cc1 | 28.2 µM [falling, single point] | –
CCn1cc(/C=C/C(=O)Nc2ccn(Cc3c(F)c(F)c(F)c(F)c3F)n2)cn1 | 23.1 µM [falling, single point] | –
COc1ccc(NC(=O)c2cccc(Cl)c2)c[n+]1[O-] | 2.82 µM [rising, full curve, poor fit] | –
CCCCN(CC)C(=S)Nc1ccc2nc3n(c(=O)c2c1)CCCCC3 | 20.6 µM [rising, partial curve, poor fit] | –
C[C@@H]1C[C@H]2[C@@H]3C[C@H](F)C4=CC(=O)C=C[C@]4(C)[C@@]3(F)[C@@H](O)C[C@]2(C)[C@@]1(O)C(=O)CO | 0.00411 µM [rising, full curve, poor fit] | 5.17 µM [falling, full curve, poor fit]
O=C(COC(=O)c1cccnc1Cl)NCCc1ccccc1 | 16.4 µM [rising, single point] | –
Cc1ccc(-n2c(CC#N)n[nH]c2=S)c(C)c1 | 35.5 µM [rising, single point] | –
CCn1c(CNC(=O)c2ccc(OC)cc2)nnc1SCC(=O)c1ccccc1 | 2.91 µM [falling, partial curve, poor fit] | –
O=C(O)CCSc1ccc([N+](=O)[O-])cc1[N+](=O)[O-] | 35.5 µM [rising, single point] | 35.5 µM [falling, single point]
FC(F)(F)c1cccc(NC(=S)NCc2ccc(Cl)cc2)c1 | 22.4 µM [falling, partial curve, poor fit] | –

Random excerpt: two entries already listed.
SMILES | AC50 [1] | AC50 [2]
CC(=O)c1cccc(NC(=O)CSc2nc(C3CC3)nc3ccccc23)c1 | 2.51 µM [falling, partial curve, poor fit] | –
Cc1cc(C(=O)NNC(=O)c2cccc(N(C)C)c2)c(C)o1 | 11.2 µM [falling, partial curve, poor fit] | –
